Taken from: PubChem BioAssay AID1259424 (University of Nebraska Medical Center, 2018)
Purpose: 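Rank knockdowns across the genome by resemblance to the KSR1 depletion profile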 (primary screen). System: human HCT116 colon cancer cells. Knock-down reagent: siRNA pool against human genes, 50 nM. Measurement: 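Six signature mRNAs by branched-DNA multiplex assay, scaled to two housekeeping genes and non-targeting median, log2; matched to mean KSR1 knockdown profile by Pearson correlation and euclidean distance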. Scale: mean correlation with KSR1 profile: higher = expression change more like KSR1 knockdown.
The deposit covers about 14,000 reagents; below is a part drawn at random. 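Higher correlation or smaller distance means closer resemblance to KSR1 loss; control wells, including KSR1 knockdowns, recur on many plates.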 The numbers tell different reagents against one gene apart. Further read-outs or replicates are left out here. Not given: the time to read-out.

PLXNA4 gave mean correlation with KSR1 profile -0.366.
With knock-down of CBX1, the record shows mean correlation with KSR1 profile -0.568.
After knock-down of TFF3, the record shows mean correlation with KSR1 profile -0.65.
After knock-down of CMKLR1, the screen gave mean correlation with KSR1 profile 0.35.
With knock-down of MMP13 the results were mean correlation with KSR1 profile -0.766.
DYNLT3 scored mean correlation with KSR1 profile -0.577.
With knock-down of TRDN the results were mean correlation with KSR1 profile -0.275.
Silencing of TP53 came out at: mean correlation with KSR1 profile 0.62.
For FOXG1 #1, the values are mean correlation with KSR1 profile 0.182.
Silencing of FOXG1 #2 came out at: mean correlation with KSR1 profile -0.17.
Silencing of LSM1 came out at: mean correlation with KSR1 profile -0.712.
GPN3 scored mean correlation with KSR1 profile -0.0942.
PIGY showed mean correlation with KSR1 profile 0.0302.
Knock-down of OPN5 came out at: mean correlation with KSR1 profile 0.708.
After knock-down of LLGL1 the results were mean correlation with KSR1 profile 0.337.
GNB5 showed mean correlation with KSR1 profile -0.337.
Silencing of ADISSP came out at: mean correlation with KSR1 profile -0.521.
Against STRA6, the values are mean correlation with KSR1 profile -0.144.
Silencing of NUDC resulted in: mean correlation with KSR1 profile 0.00266.
Against CGB8, the values are mean correlation with KSR1 profile -0.266.
INPP5A scored mean correlation with KSR1 profile -0.275.
With knock-down of PUF60, the record shows mean correlation with KSR1 profile 0.215.
After knock-down of AHCY, the screen gave mean correlation with KSR1 profile -0.0994.
Against ZNF639, the entry reads mean correlation with KSR1 profile -0.473.
Against ENPP4 the deposit lists mean correlation with KSR1 profile -0.177.
After knock-down of GOLGB1, the record shows mean correlation with KSR1 profile 0.0601.
For SLC22A13, the values are mean correlation with KSR1 profile -0.246.
Depletion of ARPC4 resulted in: mean correlation with KSR1 profile -0.0316.

A portion taken from the entries so far, for reference:
TRDN → mean correlation with KSR1 profile = -0.275
TP53 → mean correlation with KSR1 profile = 0.62
FOXG1 #1 → mean correlation with KSR1 profile = 0.182
